Some entries share one result that the patent states for a list of compounds.
These molecules were tested on potato leafhopper (Empoasca fabae (Harris)) (assay: Test D: control of potato leafhopper through contact and/or systemic means). Settings: sprayed at 50 ppm; assessed after 6 days.
Format: in vivo
Method: (§1) Test compounds were formulated using a solution containing 10% acetone, 90% water and 300 ppm Activator 90® non-ionic surfactant (Loveland Products, Loveland, Colo., USA). The formulated compounds were applied in 1 mL of liquid through an atomizer nozzle positioned 1.27 cm (0.5 inches) above the top of each test unit. Test compounds were sprayed at the rates indicated, and each test was replicated three times.
For evaluating control of potato leafhopper (Empoasca fabae (Harris)) through contact and/or systemic means, the test unit consisted of a small open container with a 5-6-day-old Soleil bean plant (primary leaves emerged) inside. White sand was added to the top of the soil, and one of the primary leaves was excised prior to application of the test compound.
Test compounds were formulated and sprayed at 250 and/or 50 ppm. After spraying of the formulated test compound, the test units were allowed to dry for 1 hour before they were post-infested with 5 potato leafhoppers (18-to-21-day-old adults). A black, screened cap was placed on the top of the test unit, and the test units were held for 6 days in a growth chamber at 20° C. and 70% relative humidity. Each test unit was then visually assessed for insect mortality.

Structure (SMILES)	mortality
CC(=O)NCc1cc(NC(=O)C2C(c3ccc(Cl)c(Cl)c3)C2(Cl)Cl)ccc1F (stereo not shown) [Compound 3]	at least 80%
O=C(NCc1cc(NC(=O)C2C(c3ccc(F)cc3)C2(Cl)Cl)ccc1F)C1CC1 (stereo not shown) [Compound 7]	at least 80%
CCC(=O)NCc1cc(N(C)C(=O)C2C(c3ccc(F)c(Cl)c3)C2(Cl)Cl)ccc1F (stereo not shown) [Compound 154]	at least 80%

Same assay, conditions: sprayed at 250 ppm; assessed after 6 days

Structure (SMILES)	mortality
CC(=O)NCc1cc(NC(=O)C2C(c3ccc(Cl)c(Cl)c3)C2(Cl)Cl)ccc1F (stereo not shown) [Compound 3]	at least 80%
O=C(NCc1cc(NC(=O)C2C(c3ccc(F)cc3)C2(Cl)Cl)ccc1F)C1CC1 (stereo not shown) [Compound 7]	at least 80%
CCC(=O)NCc1cc(N(C)C(=O)C2C(c3ccc(F)c(Cl)c3)C2(Cl)Cl)ccc1F (stereo not shown) [Compound 154]	at least 80%

These molecules were tested on cotton melon aphid (Aphis gossypii (Glover)) (assay: Test F: control of cotton melon aphid through contact and/or systemic means). Settings: sprayed at 50 ppm; assessed after 6 days.
Format: in vivo

Structure (SMILES)	mortality
CC(=O)NCc1cc(NC(=O)C2C(c3ccc(Cl)c(Cl)c3)C2(Cl)Cl)ccc1F (stereo not shown) [Compound 3]	at least 80%
CC(=O)NCc1cc(NC(=O)C2C(c3ccc(Cl)c(F)c3)C2(Cl)Cl)ccc1Cl (stereo not shown) [Compound 131]	at least 80%
O=C(NCc1cc(NC(=O)C2C(c3ccc(F)cc3)C2(Cl)Cl)ccc1F)C1CC1 (stereo not shown) [Compound 7]	at least 80%
CCC(=O)NCc1cc(N(C)C(=O)C2C(c3ccc(F)c(Cl)c3)C2(Cl)Cl)ccc1F (stereo not shown) [Compound 154]	at least 80%

Same assay, conditions: sprayed at 250 ppm; assessed after 6 days

Structure (SMILES)	mortality
CC(=O)NCc1cc(NC(=O)C2C(c3ccc(Cl)c(Cl)c3)C2(Cl)Cl)ccc1F (stereo not shown) [Compound 3]	at least 80%
O=C(NCc1cc(NC(=O)C2C(c3ccc(F)cc3)C2(Cl)Cl)ccc1F)C1CC1 (stereo not shown) [Compound 7]	at least 80%
CCC(=O)NCc1cc(N(C)C(=O)C2C(c3ccc(F)c(Cl)c3)C2(Cl)Cl)ccc1F (stereo not shown) [Compound 154]	at least 80%

Each molecule was assayed on green peach aphid (Myzus persicae (Sulzer)) (assay: Test E: control of green peach aphid through contact and/or systemic means). Settings: sprayed at 50 ppm; assessed after 6 days.
Format: in vivo
Method: as §1
For evaluating control of green peach aphid (Myzus persicae (Sulzer)) through contact and/or systemic means, the test unit consisted of a small open container with a 12-15-day-old radish plant inside. This was pre-infested by placing on a leaf of the test plant 30-40 aphids on a piece of leaf excised from a culture plant (cut-leaf method). The aphids moved onto the test plant as the leaf piece desiccated. After pre-infestation, the soil of the test unit was covered with a layer of sand.
Test compounds were formulated and sprayed at 250 and/or 50 ppm. After spraying of the formulated test compound, each test unit was allowed to dry for 1 hour and then a black, screened cap was placed on top. The test units were held for 6 days in a growth chamber at 19-21° C. and 50-70% relative humidity. Each test unit was then visually assessed for insect mortality.

Structure (SMILES)	mortality
COC(=O)CC(=O)NCc1cc(NC(=O)C2C(c3ccc(Cl)c(Cl)c3)C2(Cl)Cl)ccc1Cl (stereo not shown) [Compound 110]	at least 80%
CC(=O)NCc1cc(NC(=O)C2C(c3ccc(Cl)c(Cl)c3)C2(Cl)Cl)ccc1F (stereo not shown) [Compound 3]	at least 80%
CC(=O)NCc1cc(NC(=O)C2C(c3ccc(Cl)c(F)c3)C2(Cl)Cl)ccc1Cl (stereo not shown) [Compound 131]	at least 80%
O=C(NCc1cc(NC(=O)C2C(c3ccc(F)cc3)C2(Cl)Cl)ccc1F)C1CC1 (stereo not shown) [Compound 7]	at least 80%
CCC(=O)NCc1cc(N(C)C(=O)C2C(c3ccc(F)c(Cl)c3)C2(Cl)Cl)ccc1F (stereo not shown) [Compound 154]	at least 80%

Same assay, conditions: sprayed at 250 ppm; assessed after 6 days

Structure (SMILES)	mortality
CC(=O)NCc1cc(NC(=O)C2C(c3ccc(Cl)c(Cl)c3)C2(Cl)Cl)ccc1F (stereo not shown) [Compound 3]	at least 80%
O=C(NCc1cc(NC(=O)C2C(c3ccc(F)cc3)C2(Cl)Cl)ccc1F)C1CC1 (stereo not shown) [Compound 7]	at least 80%
CCC(=O)NCc1cc(N(C)C(=O)C2C(c3ccc(F)c(Cl)c3)C2(Cl)Cl)ccc1F (stereo not shown) [Compound 154]	at least 80%

Each molecule was assayed on fall armyworm (Spodoptera frugiperda (J. E. Smith)) (assay: Test B: control of fall armyworm, foliar spray on corn (maize) plant). Settings: sprayed at 50 ppm, assessed after 6 days, value is the feeding damage limit.
Format: in vivo

Structure (SMILES)	control efficacy (40% or less feeding damage and/or 100% mortality)
CC(=O)NCc1cc(NC(=O)C2C(c3ccc(Cl)c(Cl)c3)C2(Cl)Cl)ccc1F (stereo not shown) [Compound 3]	≤ 40%
CCC(=O)NCc1cc(NC(=O)C2C(c3cc(Cl)c(F)c(Cl)c3)C2(Cl)Cl)ccc1Cl (stereo not shown) [Compound 59]	≤ 40%
O=C(Nc1ccc(F)c(CNC(=O)C(F)(F)C(F)F)c1)C1C(c2ccc(F)c(Cl)c2)C1(Cl)Cl (stereo not shown) [Compound 187]	≤ 40%
CCC(=O)NCc1cc(N(C)C(=O)C2C(c3ccc(F)c(Cl)c3)C2(Cl)Cl)ccc1F (stereo not shown) [Compound 154]	≤ 40%

Same assay, conditions: sprayed at 250 ppm, assessed after 6 days, value is the feeding damage limit

Structure (SMILES)	control efficacy (40% or less feeding damage and/or 100% mortality)
CC(=O)NCc1cc(NC(=O)C2C(c3ccc(Cl)c(Cl)c3)C2(Cl)Cl)ccc1F (stereo not shown) [Compound 3]	≤ 40%
CCC(=O)NCc1cc(NC(=O)C2C(c3cc(Cl)c(F)c(Cl)c3)C2(Cl)Cl)ccc1Cl (stereo not shown) [Compound 59]	≤ 40%
O=C(NCc1cc(NC(=O)C2C(c3ccc(F)cc3)C2(Cl)Cl)ccc1F)C1CC1 (stereo not shown) [Compound 7]	≤ 40%
O=C(Nc1ccc(F)c(CNC(=O)C(F)(F)C(F)F)c1)C1C(c2ccc(F)c(Cl)c2)C1(Cl)Cl (stereo not shown) [Compound 187]	≤ 40%
CCC(=O)NCc1cc(N(C)C(=O)C2C(c3ccc(F)c(Cl)c3)C2(Cl)Cl)ccc1F (stereo not shown) [Compound 154]	≤ 40%

These molecules were tested on sweetpotato whitefly (Bemisia tabaci (Gennadius)) (assay: Test G: control of sweetpotato whitefly through contact and/or systemic means). Settings: sprayed at 50 ppm; assessed after 13 days.
Format: in vivo
Method: as §1
For evaluating control of the sweetpotato whitefly (Bemisia tabaci (Gennadius)) through contact and/or systemic means, the test unit consisted of a small open container with a 12-14-day-old cotton plant or 7-9-day-old soybean plant inside. Prior to the spray application, both cotyledons were removed from the plant, leaving one true leaf for the assay. Adult whiteflies were allowed to lay eggs on the plant and then were removed from the test unit. Cotton or soybean plants infested with at least 15 eggs were submitted to the test for spraying.
Test compounds were formulated and sprayed at 250 and/or 50 ppm. After spraying, the test units were allowed to dry for 1 hour. The cylinders were then removed, and the units were taken to a growth chamber and held for 13 days at 28° C. and 50-70% relative humidity. Each test unit was then visually assessed for insect mortality.

Structure (SMILES)	mortality
CC(=O)NCc1cc(NC(=O)C2C(c3ccc(Cl)c(Cl)c3)C2(Cl)Cl)ccc1F (stereo not shown) [Compound 3]	at least 70%

Same assay, conditions: sprayed at 250 ppm; assessed after 13 days

Structure (SMILES)	mortality
CC(=O)NCc1cc(NC(=O)C2C(c3ccc(Cl)c(Cl)c3)C2(Cl)Cl)ccc1F (stereo not shown) [Compound 3]	at least 70%

These molecules were tested on Western Flower Thrips (Frankliniellla occidentalis (Pergande)) (assay: Test H: control of Western Flower Thrips through contact and/or systemic means). Settings: sprayed at 50 ppm, assessed after 6 days, value is the plant damage limit.
Format: in vivo

Structure (SMILES)	control efficacy (30% or less plant damage and/or 100% mortality)
CC(=O)NCc1cc(NC(=O)C2C(c3ccc(Cl)c(Cl)c3)C2(Cl)Cl)ccc1F (stereo not shown) [Compound 3]	≤ 30%

Same assay, conditions: sprayed at 250 ppm, assessed after 6 days, value is the plant damage limit

Structure (SMILES)	control efficacy (30% or less plant damage and/or 100% mortality)
CC(=O)NCc1cc(NC(=O)C2C(c3ccc(Cl)c(Cl)c3)C2(Cl)Cl)ccc1F (stereo not shown) [Compound 3]	≤ 30%
O=C(Nc1ccc(F)c(CNC(=O)C(F)(F)C(F)F)c1)C1C(c2ccc(F)c(Cl)c2)C1(Cl)Cl (stereo not shown) [Compound 187]	≤ 30%

These molecules were tested on diamondback moth (Plutella xylostella (L.)) (assay: Test A: control of diamondback moth, foliar spray on mustard plant). Settings: sprayed at 50 ppm, assessed after 6 days, value is the feeding damage limit.
Format: in vivo

Structure (SMILES)	control efficacy (40% or less feeding damage and/or 100% mortality)
COC(=O)CC(=O)NCc1cc(NC(=O)C2C(c3ccc(Cl)c(Cl)c3)C2(Cl)Cl)ccc1Cl (stereo not shown) [Compound 110]	≤ 40%
CC(=O)NCc1cc(NC(=O)C2C(c3ccc(Cl)c(Cl)c3)C2(Cl)Cl)ccc1F (stereo not shown) [Compound 3]	≤ 40%
CCC(=O)NCc1cc(NC(=O)C2C(c3cc(Cl)c(F)c(Cl)c3)C2(Cl)Cl)ccc1Cl (stereo not shown) [Compound 59]	≤ 40%
O=C(NCc1cc(NC(=O)C2C(c3ccc(F)cc3)C2(Cl)Cl)ccc1F)C1CC1 (stereo not shown) [Compound 7]	≤ 40%
O=C(Nc1ccc(F)c(CNC(=O)C(F)(F)C(F)F)c1)C1C(c2ccc(F)c(Cl)c2)C1(Cl)Cl (stereo not shown) [Compound 187]	≤ 40%
CCC(=O)NCc1cc(N(C)C(=O)C2C(c3ccc(F)c(Cl)c3)C2(Cl)Cl)ccc1F (stereo not shown) [Compound 154]	≤ 40%

Same assay, conditions: sprayed at 250 ppm, assessed after 6 days, value is the feeding damage limit

Structure (SMILES)	control efficacy (40% or less feeding damage and/or 100% mortality)
CC(=O)NCc1cc(NC(=O)C2C(c3ccc(Cl)c(Cl)c3)C2(Cl)Cl)ccc1F (stereo not shown) [Compound 3]	≤ 40%
CCC(=O)NCc1cc(NC(=O)C2C(c3cc(Cl)c(F)c(Cl)c3)C2(Cl)Cl)ccc1Cl (stereo not shown) [Compound 59]	≤ 40%
O=C(NCc1cc(NC(=O)C2C(c3ccc(F)cc3)C2(Cl)Cl)ccc1F)C1CC1 (stereo not shown) [Compound 7]	≤ 40%
O=C(Nc1ccc(F)c(CNC(=O)C(F)(F)C(F)F)c1)C1C(c2ccc(F)c(Cl)c2)C1(Cl)Cl (stereo not shown) [Compound 187]	≤ 40%
CCC(=O)NCc1cc(N(C)C(=O)C2C(c3ccc(F)c(Cl)c3)C2(Cl)Cl)ccc1F (stereo not shown) [Compound 154]	≤ 40%

The molecules below were run on corn planthopper (Peregrinus maidis (Ashmead)) (assay: Test C: control of corn planthopper through contact and/or systemic means). Settings: sprayed at 250 ppm; assessed after 6 days.
Format: in vivo
Method: as §1
For evaluating control of corn planthopper (Peregrinus maidis (Ashmead)) through contact and/or systemic means, the test unit consisted of a small open container with a 3-4-day-old corn (maize) plant inside. White sand was added to the top of the soil prior to application of the test compound.
Test compounds were formulated and sprayed at 250 and/or 50 ppm. After spraying of the formulated test compound, the test units were allowed to dry for 1 h before they were post-infested with ˜15-20 nymphs (18-to-21-day-old). A black, screened cap was placed on the top of each test unit, and the test units were held for 6 days in a growth chamber at 22-24° C. and 50-70% relative humidity. Each test unit was then visually assessed for insect mortality.

Structure (SMILES)	mortality
CCC(=O)NCc1cc(NC(=O)C2C(c3cc(Cl)c(F)c(Cl)c3)C2(Cl)Cl)ccc1Cl (stereo not shown) [Compound 59]	at least 80%
O=C(Nc1ccc(F)c(CNC(=O)C(F)(F)C(F)F)c1)C1C(c2ccc(F)c(Cl)c2)C1(Cl)Cl (stereo not shown) [Compound 187]	at least 80%
CCC(=O)NCc1cc(N(C)C(=O)C2C(c3ccc(F)c(Cl)c3)C2(Cl)Cl)ccc1F (stereo not shown) [Compound 154]	at least 80%

From patent US20210400977A1, “META-DIAMIDE COMPOUNDS FOR CONTROLLING INVERTEBRATE PESTS” (FMC Corporation, priority 2018, published 2021)
